No constants are given. Whether binding was seen depends on the method and setting. Binding calls can cover weak binding; strength is not graded here. Where a sequence is shown, tags or fusion partners need not be part of it. For some of these results: In cells and extracts the contact can be indirect.
What was measured:
3×Flag-sIFITM2 (pig) = target: T1, 3×Flag-sIFITM2 (pig) (UniProt F4ZS15); test: co-IP; PK15 cells cotransfected with 3×Flag-sIFITM1/2/3 and GFP-sABHD16A for 24 h; lysates precipitated with anti-Flag antibody on magnetic beads, 4°C, 4 h; blot with anti-GFP and anti-Flag
T1 sequence: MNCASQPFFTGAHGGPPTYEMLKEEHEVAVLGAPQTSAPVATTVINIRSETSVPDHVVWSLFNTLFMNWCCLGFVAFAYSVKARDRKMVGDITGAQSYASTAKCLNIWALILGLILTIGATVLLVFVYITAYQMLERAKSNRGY

3×Flag-sIFITM3 (pig) = target: T2, 3×Flag-sIFITM3 (pig) (UniProt E7EAX3); test: as above
T2 sequence: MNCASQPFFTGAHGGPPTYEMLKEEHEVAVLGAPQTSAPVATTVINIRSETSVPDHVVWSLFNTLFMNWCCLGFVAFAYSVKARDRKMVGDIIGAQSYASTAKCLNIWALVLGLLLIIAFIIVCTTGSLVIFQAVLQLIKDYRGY

[1] = target: T3, swine IFITM2 (sIFITM2), Gal4-binding domain fusion (pGBKT7-sifitm2) (pig) (UniProt F4ZS15); test: two-hybrid; AH109 yeast; Gal4 BD-IFITM as bait (pGBKT7), AD-ABHD16A as prey (pGADT7); growth on SD-Ade/-His/-Leu/-Trp and blue colonies with X-alpha-Gal
T3 sequence: T1 sequence

[2] = target: T4, swine IFITM3 (sIFITM3), Gal4-binding domain fusion (pGBKT7-sifitm3) (pig) (UniProt E7EAX3); test: as above
T4 sequence: T2 sequence

| binding (3×Flag-sIFITM2 (pig)) | binding (3×Flag-sIFITM3 (pig)) | binding [1] | binding [2] | Substance |
| --- | --- | --- | --- | --- |
| binds | binds |  |  | GFP-sABHD16A (pig) (enzyme) |
|  |  | binds | binds | swine ABHD16A (sABHD16A), Gal4 activation domain fusion (pGADT7-sabhd16a) (pig) (enzyme) |

From publication PMC9765265
